Test results as given in US6468729B2, “Silver halide photographic light-sensitive material” (Fuji Photo Film Co., Ltd., priority 2000, dated 2002).

Experiment: Yellow stains after 5,000-lux fluorescent lamp irradiation for two weeks
Details: increased yellow density minus blank
Description: Evaluation of yellow stains: Each sample was exposed to white light of 500 lux for 1 sec and subjected to the following development. The obtained samples were irradiated with a 5,000-lux fluorescent lamp for two weeks, and the yellow stain density was measured. Evaluation was done by subtracting the blank density from the increased yellow density. The smaller the value, the less yellow stains were generated.

[1] = Example 1, oil/coupler ratio 0.5
[2] = Example 1, oil/coupler ratio 0.0

| Compound | Yellow stain [1] | Yellow stain [2] |
| --- | --- | --- |
| CCCCCCCCCCCCCCCCCCOc1ccc(C(C)(C)C)cc1S(=O)(=O)NC(C)c1n[nH]c2cc(C(C)(C)C)nn12 (centres unmarked) [Compound G-1] | 0.04 | – |
| CCCCCCCCCCCCCCCC(C(=O)O)C(=O)Nc1cccc(C(=O)Nc2ccc(CCCc3n[nH]c4cc(C(C)(C)C)nn34)cc2)c1 (centres unmarked) [Compound G-2] | 0.14 | 0.06 |
| CCCCCCCCOc1ccc(C(C)(C)CC(C)(C)C)cc1S(=O)(=O)Nc1cc(S(=O)(=O)Nc2c(C)cc(C)c(-c3n[nH]c4cc(CC)nn34)c2C)ccc1Cl [Compound G-3] | 0.19 | 0.05 |
| CCCCCCCCOc1ccc(NS(=O)(=O)c2cc(C(C)(C)CC(C)(C)C)ccc2OCCOc2ccc(C)cc2)cc1S(=O)(=O)NC(C)c1n[nH]c2cc(C(C)(C)C)nn12 (centres unmarked) [Compound G-4] | 0.03 | 0.02 |
| CCCCCCCCC(CCCCCC)COc1ccc(NS(=O)(=O)c2ccc(Cl)cc2Cl)cc1S(=O)(=O)NC(C)c1n[nH]c2cc(C(C)(C)C)nn12 (centres unmarked) [MC-20] | – | 0.02 |
| CCCCCCCCOC(=O)Nc1cccc(S(=O)(=O)Nc2cccc(S(=O)(=O)NC(C)(C)c3n[nH]c4cc(C(C)(C)C)nn34)c2)c1 [MC-37] | 0.01 | – |
| CCCCCCCCCCCCCCCCOc1cccc(S(=O)(=O)Nc2ccc(C(C)(C)C)c(S(=O)(=O)Nc3ccc(Cl)c(-c4n[nH]c5cc(C(C)C)nn45)c3Cl)c2)c1 [MC-38] | 0.02 | – |
| CCCCCCCCCCCCOc1ccc(S(=O)(=O)NC(C)c2n[nH]c3cc(C(C)(C)C)nn23)cc1NS(=O)(=O)c1ccc(Cl)cc1 (centres unmarked) [MC-39] | 0.01 | – |
| CCCCCCCCCCCCOc1cc(NS(=O)(=O)c2ccc(C)cc2)ccc1S(=O)(=O)NC(C)c1n[nH]c2cc(C(C)(C)C)nn12 (centres unmarked) [MC-40] | 0.01 | – |
| CCCCCCCCCCCCCCCCOc1ccc(NS(=O)(=O)c2cc(C(=O)N3CCOCC3)cc(C(=O)N3CCOCC3)c2)cc1S(=O)(=O)NC(C)c1n[nH]c2cc(C(C)(C)C)nn12 (centres unmarked) [MC-46] | – | 0.01 |
| CCCCCCCCCCCCCCCCCCOc1ccc(NS(=O)(=O)c2cc(C(=O)OC3CCCCC3)cc(C(=O)OC3CCCCC3)c2)cc1S(=O)(=O)NC(C)c1n[nH]c2cc(C(C)(C)C)nn12 (centres unmarked) [MC-58] | 0.01 | – |
